# PubChem BioAssay AID1224826, NIAID – 2016
# Test: 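Genes that change LPS-induced Tnf promoter activity in mouse macrophages when knocked down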 (primary screen)
# Cells: RAW264.7 G9 macrophages from mouse bearing reporters for p65 (GFP) and the Tnf promoter (mCherry)
# Knock-down reagent: siRNA pool against mouse genes, 100 nM
# Time to read-out: 16 h of LPS stimulation, after 2 days of siRNA transfection
# Treatment: bacterial lipopolysaccharide (Salmonella minnesota R595), 10 ng/ml
# Detection: 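Imaged Tnf reporter mCherry in nuclei, minus background, normalised per plate to the median and expressed as robust z-scores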
# Direction: Tnf reporter robust z-score: higher = stronger Tnf promoter reporter signal after LPS; Tnf reporter intensity: higher = stronger Tnf promoter reporter signal
# Active means: 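Called active when robust z-score is at most -1.3, matching the median of the Tlr4 knock-down control, or over 3; control wells and wells with under 50 cells never active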
# Meaning of the calls: active = Tnf reporter clearly lowered or raised; inactive = no clear change in Tnf reporter
# The deposit covers about 17,000 reagents; below is a random part of them. In the full data, about 1,110 (6.6%) got an active call. 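Active means lowered or raised reporter signal; replicate intensities are raw and not normalised per plate.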 Some reagents were tested in more than one well and are listed for each.
Target gene,Tnf reporter robust z-score,fewer than 50 cells in well,"Tnf reporter intensity, replicate 1","Tnf reporter intensity, replicate 2",activity call
Rnaseh1 (GeneID 19819),,fewer than 50 cells per well; well left out of calls,53.5,45.1,inactive
Or1q1 (GeneID 258616),-1.55,enough cells in well,99.5,48.4,active
Nhlrc3 (GeneID 212114),-0.1,enough cells in well,165,191,inactive
Gm5087 (GeneID 328354),0.8,enough cells in well,213,219,inactive
Tnfrsf21 (GeneID 94185),-1.29,enough cells in well,159,58.8,inactive
Slc17a6 (GeneID 140919),1.92,enough cells in well,176,157,inactive
Slit1 (GeneID 20562),-0.93,enough cells in well,145,102,inactive
Abcb7 (GeneID 11306),0.53,enough cells in well,177,197,inactive
Mei4 (GeneID 75033),,fewer than 50 cells per well; well left out of calls,231,77.4,inactive
Rab6a (GeneID 19346),-0.17,enough cells in well,379,135,inactive
Prr9 (GeneID 109314),-0.09,enough cells in well,237,157,inactive
Efnb2 (GeneID 13642),-0.73,enough cells in well,165,183,inactive
Puf60 (GeneID 67959),0.15,enough cells in well,260,48.1,inactive

Entries listed above called active, once more:
Target gene,Tnf reporter robust z-score,fewer than 50 cells in well,"Tnf reporter intensity, replicate 1","Tnf reporter intensity, replicate 2",activity call
Or1q1 (GeneID 258616),-1.55,enough cells in well,99.5,48.4,active

The list goes on.
Target gene,Tnf reporter robust z-score,fewer than 50 cells in well,"Tnf reporter intensity, replicate 1","Tnf reporter intensity, replicate 2",activity call
Zfp599 (GeneID 235048),0.51,enough cells in well,142,174,inactive
Acad10 (GeneID 71985),-0.45,enough cells in well,174,127,inactive
Acad10 (GeneID 71985),-0.24,enough cells in well,232,63.9,inactive
Or8g54 (GeneID 258823),-0.26,enough cells in well,129,127,inactive
Glrb (GeneID 14658),-0.38,enough cells in well,243,101,inactive
Cckbr (GeneID 12426),0.61,enough cells in well,293,254,inactive
Clns1a (GeneID 12729),0.99,enough cells in well,223,231,inactive
Timm29 (GeneID 69773),,fewer than 50 cells per well; well left out of calls,172,74,inactive
Tcea2 (GeneID 21400),0.21,enough cells in well,238,151,inactive
B9d1 (GeneID 27078),0.13,enough cells in well,231,161,inactive
Ell2 (GeneID 192657),-1.63,enough cells in well,89,70.9,active
